Measured values as given in publication doi:10.1101/2025.11.22.689900.
No constants are given. Whether binding was seen depends on the method and setting. Binding seen in cells or lysates may run through a third protein. Some entries that bind do so weakly or less than the wild type. Where a sequence is shown, tags or fusion partners need not be part of it.

Protein sequences, listed by entry. Tags and fused reporters are not part of them.
UniProt P56693: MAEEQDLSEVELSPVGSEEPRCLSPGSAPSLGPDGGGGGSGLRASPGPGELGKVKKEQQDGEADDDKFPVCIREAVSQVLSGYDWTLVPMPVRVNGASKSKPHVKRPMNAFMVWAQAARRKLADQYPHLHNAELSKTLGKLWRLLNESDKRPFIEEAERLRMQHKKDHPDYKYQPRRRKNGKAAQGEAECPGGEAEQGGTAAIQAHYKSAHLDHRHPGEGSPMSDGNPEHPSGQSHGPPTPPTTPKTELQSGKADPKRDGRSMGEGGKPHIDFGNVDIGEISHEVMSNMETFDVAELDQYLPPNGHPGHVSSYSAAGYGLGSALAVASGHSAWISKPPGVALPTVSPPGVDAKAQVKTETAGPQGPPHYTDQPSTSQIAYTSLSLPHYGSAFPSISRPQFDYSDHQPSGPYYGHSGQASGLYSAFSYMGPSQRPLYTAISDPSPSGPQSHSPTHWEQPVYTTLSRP
UniProt Q04888: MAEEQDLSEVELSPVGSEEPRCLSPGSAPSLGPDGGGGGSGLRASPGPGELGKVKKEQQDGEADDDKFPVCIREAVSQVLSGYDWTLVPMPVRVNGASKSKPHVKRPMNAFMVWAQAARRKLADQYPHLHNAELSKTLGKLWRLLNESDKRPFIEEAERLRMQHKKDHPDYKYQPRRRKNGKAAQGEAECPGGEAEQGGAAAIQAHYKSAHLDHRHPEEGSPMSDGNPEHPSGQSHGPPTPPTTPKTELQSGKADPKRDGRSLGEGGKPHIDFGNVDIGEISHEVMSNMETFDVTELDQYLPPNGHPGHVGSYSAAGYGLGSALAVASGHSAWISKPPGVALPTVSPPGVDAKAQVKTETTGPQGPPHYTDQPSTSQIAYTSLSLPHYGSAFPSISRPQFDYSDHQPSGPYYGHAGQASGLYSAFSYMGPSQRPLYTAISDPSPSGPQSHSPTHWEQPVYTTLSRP

Assays:
[1] = molecular target: T1, GST-tagged WWOX (UniProt Q9NZC7); assay: pull-down
T1 sequence: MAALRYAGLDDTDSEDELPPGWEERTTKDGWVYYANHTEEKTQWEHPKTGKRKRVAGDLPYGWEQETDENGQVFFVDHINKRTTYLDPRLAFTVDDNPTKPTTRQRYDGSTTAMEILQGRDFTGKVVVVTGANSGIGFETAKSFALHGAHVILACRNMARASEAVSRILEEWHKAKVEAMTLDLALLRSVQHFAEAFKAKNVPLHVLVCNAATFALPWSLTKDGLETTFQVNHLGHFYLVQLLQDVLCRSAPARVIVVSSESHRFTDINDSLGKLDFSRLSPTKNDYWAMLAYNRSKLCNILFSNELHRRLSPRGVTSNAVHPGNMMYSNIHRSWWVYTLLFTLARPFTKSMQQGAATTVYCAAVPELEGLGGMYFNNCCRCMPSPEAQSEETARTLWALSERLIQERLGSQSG

[2] = molecular target: T2, HA-tagged WWOX (knock-in mouse) (mouse (endogenous in cortex of the HA-Wwox knock-in mouse)) (UniProt Q91WL8); assay: co-IP
T2 sequence: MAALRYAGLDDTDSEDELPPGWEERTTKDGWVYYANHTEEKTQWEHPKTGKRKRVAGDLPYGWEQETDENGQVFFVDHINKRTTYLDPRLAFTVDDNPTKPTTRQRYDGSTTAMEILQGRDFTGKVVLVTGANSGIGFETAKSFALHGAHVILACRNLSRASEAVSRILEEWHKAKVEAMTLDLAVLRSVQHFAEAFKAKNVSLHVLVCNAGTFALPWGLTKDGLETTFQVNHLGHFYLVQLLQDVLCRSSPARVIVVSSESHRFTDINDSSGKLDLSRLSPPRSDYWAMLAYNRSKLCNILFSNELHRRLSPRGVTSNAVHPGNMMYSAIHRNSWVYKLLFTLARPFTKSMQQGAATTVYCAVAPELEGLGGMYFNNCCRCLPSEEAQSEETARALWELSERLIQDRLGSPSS

Substance: SOX10 (doxycycline-inducible plasmid, Addgene #115241) (from UniProt P56693 1-466)
- binding [1]: binds

Substance: SOX10 (endogenous, mouse cortex) (from UniProt Q04888 1-466)
- binding [2]: binds
